Assay results reported in PMC6125409.
These are yes or no findings as the source states them, for the method shown. Tags and fused reporters may be left off the sequences shown.

Assays:
[1] = target: gEpEX fused to IgG1 heavy chain hinge and Fc region (UniProt P16422); experiment: bead aggregation assay; gEpEX-Fc on Protein A beads; same buffer without CaCl2 or EDTA, pH adjusted to various values (Tris-HCl for pH 8.5); room temperature; interaction between Fc-locked dimers on separate beads; both purified
[2] = target: gEpEX fused to IgG1 heavy chain hinge and Fc region (UniProt P16422); experiment: bead aggregation assay; Fc fusions held on Protein A-coupled 1 µm magnetic beads; 20 mM HEPES pH 8.0, 100 mM NaCl, 2 mM CaCl2, 0.1% Tween-20 (Triton X-100 for gEpFL-Fc; 2 mM EDTA instead of CaCl2 for E-CadEX-Fc(EDTA)); room temperature; interaction between Fc-locked dimers on separate beads; both purified

B1: gEpEX fused to IgG1 heavy chain hinge and Fc region (Fc fusion, UniProt P16422 24-265)
chain: QEECVCENYKLAVNCFVNNNRQCQCTSVGAQNTVICSKLAAKCLVMKAEMNGSKLGRRAKPEGALQNNDGLYDPDCDESGLFKAKQCNGTSMCWCVNTAGVRRTDKDTEITCSERVRTYWIIIELKHKAREKPYDSKSLRTALQKEITTRYQLDPKFITSILYENNVITIDLVQNSSQKTQNDVDIADVAYYFEKDVKGESLFHSKKMDLTVNGEQLDLDPGQTLIYYVDEKAPEFSMQGLK
modifications: glycosylated (non-native, as produced in insect cells)
binding [1]: no binding
binding [2]: no binding
